# Reference: publication PMC5996148
# Values joined by “and” are separate entries in the source; they are usually repeats but may differ in a detail not shown here. Identical values can stand only once. This is one part of the list. For some assays here: The exact form of the protein is not confirmed.
# Key:
# Experiment in all cases: protein microarray (ProtoArray v5.0), streptavidin-Alexa Fluor 647
# Details in all cases: 3'-biotin; 20 mM Tris (pH 7.5), 5 mM MgCl2, 100 mM KCl, 0.1% Tween-20, A/T-rich and random oligonucleotide blockers; temperature not stated; high values mean tight binding
# PAGE2 (human) = test system: PAGE2 (human)
# PAGE5 (human) = test system: PAGE5 (human)
# PALM2 (human) = test system: PALM2 (human)
# PANK1 (human) = test system: PANK1 (human)
# PANK4 (human) = test system: PANK4 (human)
# PARVG (human) = test system: PARVG (human)
# PBEF1 (human) = test system: PBEF1 (human)
# PBK (human) = test system: PBK (human)
# PBLD (human) = test system: PBLD (human)
# PCDHB16 (human) = test system: PCDHB16 (human)
# PCDHGC4 (human) = test system: PCDHGC4 (human)
# PCDHGC5 (human) = test system: PCDHGC5 (human)
# PCK1 (human) = test system: PCK1 (human)
# PCNA (human) = test system: PCNA (human)
# PCTP (human) = test system: PCTP (human)
# PDCD5 = target: T1, PDCD5 (UniProt O14737)
# T1 sequence: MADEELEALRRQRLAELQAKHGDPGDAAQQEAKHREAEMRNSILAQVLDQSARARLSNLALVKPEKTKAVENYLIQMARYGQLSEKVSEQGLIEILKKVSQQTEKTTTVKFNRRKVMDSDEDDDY
# PDCL (human) = test system: PDCL (human)
# PDE4A (human) = test system: PDE4A (human)
# PDE4D (human) = test system: PDE4D (human)
# PDE8A (human) = test system: PDE8A (human)
sequence,measurement,setting,value
GGGGACAGGGGTATGGGGAGGGG [G4-3 biotinylated (CtG)],binding signal,PAGE2 (human),-0.339 z-score
same,binding signal,PAGE5 (human),-0.334 z-score
same,binding signal,PALM2 (human),-0.322 z-score
same,binding signal,PANK1 (human),-0.33 z-score
same,binding signal,PANK4 (human),-0.323 z-score
same,binding signal,PARVG (human),-0.341 z-score
same,binding signal,PBEF1 (human),-0.31 z-score and -0.32 z-score
same,binding signal,PBK (human),-0.334 z-score
same,binding signal,PBLD (human),-0.313 z-score
same,binding signal,PCDHB16 (human),-0.326 z-score
same,binding signal,PCDHGC4 (human),-0.319 z-score
same,binding signal,PCDHGC5 (human),-0.319 z-score
same,binding signal,PCK1 (human),-0.337 z-score
same,binding signal,PCNA (human),-0.324 z-score
same,binding signal,PCTP (human),-0.342 z-score
same,binding signal,PDCD5,-0.331 z-score
same,binding signal,PDCL (human),-0.323 z-score
same,binding signal,PDE4A (human),-0.313 z-score
same,binding signal,PDE4D (human),-0.3 z-score
same,binding signal,PDE8A (human),-0.351 z-score
